{"source": "PubChem BioAssay AID743454 (Peter MacCallum Cancer Centre, 2014)", "aim": "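Genes whose loss kills vorinostat-resistant colon cancer cells under vorinostat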 (primary screen)", "cells": "human HCT116-VR colon cancer cells, selected for vorinostat resistance", "reagent": "siRNA pool against human genes, 40 nM siRNA pool", "duration": "vorinostat for 24 h, read-out about 72 h after transfection", "challenge": "vorinostat at 2.5 µM final", "measurement": "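Two measures, CellTiter-Fluor viability and luminescent caspase 3/7 activity, each as fold change against same-plate mock wells, mean of duplicates, then screen-wide robust z-score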", "reading the numbers": "viability robust z-score: higher = more viable cells than screen typical; caspase robust z-score: higher = more caspase 3/7 activity than screen typical", "active means": "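a knock-down is a hit when classed RV1 or RV2 for lowered viability, or CA1 or CA2 for caspase activation; those lethal without drug were dropped; hits were retested singly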", "note": "The whole screen tested about 18,000 reagents; below is a part drawn at random. Over the whole deposit, 450 (2.5%) got an active call. 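Single biological run; no consistent viability z cut-off exists, so the class columns, not z-scores, define the calls.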 Entries without a mark were called inactive. Reagent sequences are not shown."}
{"Target gene": "PER2 (period circadian regulator 2)", "viability hit class": "no change", "caspase hit class": "no change", "viability robust z-score": 1.94, "caspase robust z-score": -0.16}
{"Target gene": "E2F8 (E2F transcription factor 8)", "viability hit class": "no change", "caspase hit class": "no change", "viability robust z-score": -0.06, "caspase robust z-score": -0.75}
{"Target gene": "CARD6 (caspase recruitment domain family member 6)", "viability hit class": "no change", "caspase hit class": "no change", "viability robust z-score": 1.94, "caspase robust z-score": -0.22}
{"Target gene": "XPA (XPA, DNA damage recognition and repair factor)", "viability hit class": "no change", "caspase hit class": "no change", "viability robust z-score": 0.8, "caspase robust z-score": -0.72}
{"Target gene": "EIF2S1 (eukaryotic translation initiation factor 2 subunit alpha)", "viability hit class": "RV2 (reduced viability) (active)", "caspase hit class": "no change", "viability robust z-score": -3.27, "caspase robust z-score": -0.14}
{"Target gene": "FKBP11 (FKBP prolyl isomerase 11)", "viability hit class": "no change", "caspase hit class": "no change", "viability robust z-score": -0.22, "caspase robust z-score": -0.5}
{"Target gene": "FIGNL1 (fidgetin like 1)", "viability hit class": "no change", "caspase hit class": "no change", "viability robust z-score": 0.38, "caspase robust z-score": -0.79}
{"Target gene": "HLA-DMB (major histocompatibility complex, class II, DM beta)", "viability hit class": "no change", "caspase hit class": "no change", "viability robust z-score": 1.29, "caspase robust z-score": -0.56}
{"Target gene": "SKAP2 (src kinase associated phosphoprotein 2)", "viability hit class": "no change", "caspase hit class": "no change", "viability robust z-score": -0.22, "caspase robust z-score": 0.02}
{"Target gene": "SLC25A18", "viability hit class": "no change", "caspase hit class": "no change", "viability robust z-score": 1.38, "caspase robust z-score": -0.05}
{"Target gene": "RUFY4 (RUN and FYVE domain containing 4)", "viability hit class": "no change", "caspase hit class": "no change", "viability robust z-score": 0.73, "caspase robust z-score": -0.52}
{"Target gene": "NIPAL3 (NIPA like domain containing 3)", "viability hit class": "no change", "caspase hit class": "no change", "viability robust z-score": 0.16, "caspase robust z-score": -0.9}

Single entries from the list:
RUFY4 (RUN and FYVE domain containing 4), caspase robust z-score → -0.52
CARD6 (caspase recruitment domain family member 6), caspase hit class = no change

The listing continues:
{"Target gene": "CHRNG (cholinergic receptor nicotinic gamma subunit)", "viability hit class": "no change", "caspase hit class": "no change", "viability robust z-score": -0.57, "caspase robust z-score": -0.32}
{"Target gene": "PECAM1 (platelet and endothelial cell adhesion molecule 1)", "viability hit class": "no change", "caspase hit class": "no change", "viability robust z-score": 0.08, "caspase robust z-score": 0.26}
{"Target gene": "TNRC6A (trinucleotide repeat containing adaptor 6A)", "viability hit class": "no change", "caspase hit class": "no change", "viability robust z-score": 0.48, "caspase robust z-score": -0.03}
{"Target gene": "VN1R2 (vomeronasal 1 receptor 2)", "viability hit class": "no change", "caspase hit class": "no change", "viability robust z-score": 0.74, "caspase robust z-score": -0.64}
{"Target gene": "EID2 (EP300 interacting inhibitor of differentiation 2)", "viability hit class": "no change", "caspase hit class": "no change", "viability robust z-score": 1.58, "caspase robust z-score": 0.19}
{"Target gene": "VSIG10 (V-set and immunoglobulin domain containing 10)", "viability hit class": "no change", "caspase hit class": "no change", "viability robust z-score": -0.55, "caspase robust z-score": -0.8}
{"Target gene": "ALPG (alkaline phosphatase, germ cell)", "viability hit class": "no change", "caspase hit class": "no change", "viability robust z-score": -1.15, "caspase robust z-score": -0.62}
{"Target gene": "METTL1 (methyltransferase 1, tRNA methylguanosine)", "viability hit class": "no change", "caspase hit class": "no change", "viability robust z-score": 0.5, "caspase robust z-score": 1.7}
{"Target gene": "MELTF (melanotransferrin)", "viability hit class": "no change", "caspase hit class": "no change", "viability robust z-score": 1.05, "caspase robust z-score": 1.82}
